The exact form of at least one protein or probe is not confirmed. A negative result means that nothing was seen under these conditions.
Columns and labels:
Test in all cases: enzyme reaction in vitro
[1] = system: TspRI; conditions: site lost; mutant product still detectable with 1000-fold excess wild type; purified recombinant protein; protein details: New England Biolabs; variant of B-raf synthetic wild type template
[2] = system: BseJI; conditions: purified recombinant protein, protein details: Fermentas
[3] = system: BseLI; conditions: purified recombinant protein, protein details: Fermentas
[4] = wild type degraded from 100:1 mixture, 85 C denaturation

AGACATACTTATTGACTCTAAGAGGAAAGATGAAGTACTATGTTTTAAAGAATATTATATTACAGAATTATAGAAATTAGATCTCTTACCTAAACTCTTCATAATGCTTGCTCTGATAGGAAAATGAGCTCTACTGTTTTCCTTTACTTACTACACCTCAGATATATTTCTTCATGAAGACCTCACAGTAAAAATAGGTGATTTTGGTCTAGCTACAGAGAAATCTCGATGGAGTGGGTCCCATCAGTTTGAACAGCTGTCTGGATCCATTTTGTGGATGGTAAGAATTGAGGCTATTTTTCCACTGATTAAATTTTTGGCCCTGAGATGCTGCTGAGTTACTAGAAAGTCATTGAAGGTCTCAACTATAGTATTTTCATAGTTCCCAGT (double strand) [B-raf synthetic mutant template]
activity on this sequence [1]: not active

TTGACTCTATGATGAAAGATGTTGTTCCACGATATATTTCTCTGATATGCCCATATTATAAGAGTGCAAATAATGGGCTCCATTCCTTTATTAGCGGTTGTATAGTTTCATAGAGACCAATAGTAAGATATCTGAACTTATGTCCACATGTAATAGGGCTATACGAACAAATAGTCCATACACAAGATATAATGACGAGGAGAAGCACCACCAGACATATCGGAATATGCCGGATTAATGTTCATTACGCCTTACACAATGTCAAGTTTATAATCATAGGTCTGCATACATTTTGTGGATCGTAAT (double strand) [universal mutant template]
activity on this sequence ([2]; only mutant product detected, variant of universal wild type template): not active
activity on this sequence ([3]; mutant product detected equally with wild type, variant of universal wild type template): not active

TTGACTCTATGATGAAAGATGTTGTTCCAGGATATAATTCACTGATATGGCCATATTTAAACAGTCCAAATAATGGGCTGCATTGCTTTATTAGCGGATGTATAGATTCATAGTGACCTATAGTAAATGCATTGTACTTATGTGCACATGAAATAGCGCTATTCGAACAAATACTCCATACTCAAGATATAATGAGGAGCTGAACCACGACGAGACATAACGGAATATGCCGCATTAATGATCATTACGCGTTAGACAATGTCAAGATTATAATCATACGTCTGCATACATTTTGTGGATCGTAAT (double strand) [universal wild type template]
activity on this sequence [2, 4]: active
activity on this sequence [3, 4]: active

Source: patent US20140322717
